The source of these data is paper PMC5529448.

Sequences of proteins named here, by UniProt entry; tags and fusion partners are left off. A change or cut given only in a name is not applied to a line headed by its entry.
UniProt P02689: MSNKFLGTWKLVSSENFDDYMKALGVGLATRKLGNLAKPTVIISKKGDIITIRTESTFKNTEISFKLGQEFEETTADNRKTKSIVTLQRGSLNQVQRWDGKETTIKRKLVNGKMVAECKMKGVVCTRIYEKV

In test [1] the target is human myelin protein P2 I43N (human) (UniProt P02689). Description: SEC; Superdex 75 pg 16/600; 0.3 M NaCl, 1 mM DTT, 20 mM HEPES pH 7.5; last step of purification; both purified.
Test [2] has the same target. Description: dynamic light scattering; triplicates at +25 °C; 0.6–0.9 mg/ml protein; 0.3 M NaCl, 20 mM HEPES pH 7.5; proteins stored on ice for 24 h after SEC; both purified.
Test [3] concerns the target human myelin protein P2 I52T (human) (UniProt P02689). Description: SEC; Superdex 75 pg 16/600; 0.3 M NaCl, 1 mM DTT, 20 mM HEPES pH 7.5; last step of purification; both purified. A general note: In gel filtration, larger molecules generally elute earlier.
The target is the same in test [4]. Description: dynamic light scattering; triplicates at +25 °C; 0.6–0.9 mg/ml protein; 0.3 M NaCl, 20 mM HEPES pH 7.5; proteins stored on ice for 24 h after SEC; both purified.
In test [5] the target is human myelin protein P2, wild type (human) (UniProt P02689). The test is described as above.

These are yes or no findings as the source states them, for the method shown.

With “human myelin protein P2 I43N (from UniProt P02689 1-132)”, the binding entry in test [1] is recorded as “no binding”; in test [2], “no binding (tested: 0.6–0.9 mg/ml)”.
Take “human myelin protein P2 I52T (from UniProt P02689 1-132)”: the binding result in test [3] is “no binding”; in test [4], “no binding (tested: 0.6–0.9 mg/ml)”.
“human myelin protein P2, wild type (from UniProt P02689 1-132)”: in test [5], the binding result is recorded as “no binding (tested: 0.6–0.9 mg/ml)”.
